The list is a part of this screen's results and no random one: it is rich in T/C values a quarter to a half above the control, in often repeated tests (any T/C) and in doses without a T/C. Other doses and runs of a compound stand elsewhere. T/C: endpoint of the treated group in % of that of the vehicle group. Some doses have a count of surviving animals in place of a T/C: the source files T/C as zero there, which appears to mark a toxic dose or a test without result, not a measured value. Some survivor counts are full or nearly so, which does not show that the dose was tolerated: survival well below the control is almost never listed, so the zero probably covers shortened survival too. Survivors were counted at the toxicity check, usually on the fifth day, unless a day is given; later deaths do not show. Schedules are NCI's codes, read here as Q, the interval in days (D) or hours (H), X, the number of doses. Some entries hold several experiments; their values stand side by side, smallest first. Where survival is the endpoint, this PubChem deposit counts one and a half times the control or more as active, and values a quarter to a half above the control carry no call in these data; other NCI protocols may use other cut-offs.
System: L1210 leukemia ip in BDF1 mice, survival T/C
Test: NCI In Vivo Anticancer Drug Screen. Data for tumor model L1210 Leukemia (intraperitoneal) in B6D2F1 (BDF1) mice
Conditions: T/C endpoint: mean survival time, higher T/C = longer survival
[1] = dose: 400.0 mg/kg/injection, schedule: Q04DX003 (ip), vehicle: Klucel (hydroxypropylcellulose) (HPC)
[2] = dose: 25.0 mg/kg/injection, schedule: Q04DX002 (ip), vehicle: Klucel (hydroxypropylcellulose) (HPC)
[3] = dose: 50.0 mg/kg/injection, schedule: Q04DX002 (ip), vehicle: Klucel (hydroxypropylcellulose) (HPC)
[4] = dose: 100.0 mg/kg/injection, schedule: Q04DX002 (ip), vehicle: Klucel (hydroxypropylcellulose) (HPC)
[5] = dose: 200.0 mg/kg/injection, schedule: Q04DX002 (ip), vehicle: Klucel (hydroxypropylcellulose) (HPC)
[6] = dose: 400.0 mg/kg/injection, schedule: Q04DX002 (ip), vehicle: Klucel (hydroxypropylcellulose) (HPC)
[7] = dose: 400.0 mg/kg/injection, schedule: Q04DX003 (ip), vehicle: saline

Cc1ccc(S(=O)(=O)Cl)cc1C(=O)O
survivor count (dose: 100.0 mg/kg/injection, schedule: Q01DX001 (ip), vehicle: saline with Tween-80): 4 of 6 | survivor count (dose: 200.0 mg/kg/injection, schedule: Q01DX001 (ip), vehicle: saline with Tween-80): 0 of 6 | survivor count (dose: 200.0 mg/kg/injection, schedule: Q04DX002 (ip), vehicle: saline with Tween-80): 0 of 6 and 1 of 3 | survivor count (dose: 400.0 mg/kg/injection, schedule: Q04DX002 (ip), vehicle: saline with Tween-80): 0 of 6

O=[As](O)(O)c1ccc(Cl)cc1C(F)(F)F
survivor count (dose: 50.0 mg/kg/injection, schedule: Q04DX003 (ip), vehicle: Klucel (hydroxypropylcellulose) (HPC)): 0 of 3 | survivor count (dose: 100.0 mg/kg/injection, schedule: Q04DX003 (ip), vehicle: Klucel (hydroxypropylcellulose) (HPC)): 2 of 3 | survivor count [1]: 0 of 6

CCCN(C)/N=N/c1[nH]ncc1C(N)=O
T/C (dose: 44.0 mg/kg/injection, schedule: Q01DX009 (ip), vehicle: saline with Tween-80): 149 % of control | T/C (dose: 100.0 mg/kg/injection, schedule: Q01DX009 (ip), vehicle: saline with Tween-80): 144 % of control | T/C (dose: 100.0 mg/kg/injection, schedule: Q04DX003 (ip), vehicle: saline with Tween-80): 127 % of control | T/C (dose: 150.0 mg/kg/injection, schedule: Q01DX009 (ip), vehicle: saline with Tween-80): 135 % of control | survivor count (dose: 400.0 mg/kg/injection, schedule: Q01DX009 (ip), vehicle: saline with Tween-80): 1 of 6

Cc1ccnc(N=Cc2ccccc2)c1
survivor count (dose: 200.0 mg/kg/injection, schedule: Q01DX001 (ip), vehicle: saline): 0 of 4 | survivor count (dose: 400.0 mg/kg/injection, schedule: Q01DX001 (ip), vehicle: saline): 0 of 4

CN1CCC2CCCCC2C1Cc1ccc(Oc2ccc(CC3C4CCCCC4CCN3C)cc2)cc1 (stereo unspecified)
survivor count (dose: 3.12 mg/kg/injection, schedule: Q04DX002 (ip), vehicle: Klucel (hydroxypropylcellulose) (HPC)): 1 of 3 | survivor count (dose: 6.25 mg/kg/injection, schedule: Q04DX002 (ip), vehicle: Klucel (hydroxypropylcellulose) (HPC)): 0 of 3 | survivor count (dose: 12.5 mg/kg/injection, schedule: Q04DX002 (ip), vehicle: Klucel (hydroxypropylcellulose) (HPC)): 0 of 3 | survivor count [2]: 0 of 3 | survivor count [3]: 0 of 3 | survivor count [4]: 0 of 3 | survivor count [5]: 0 of 3 | survivor count [6]: 0 of 3

CN=C(NC)c1ccc(Cl)c(Cl)c1
survivor count [1]: 3 of 6

Cc1cnc(=S)[nH]c1N
survivor count [7]: 3 of 6

COc1ccccc1OCCOCCN(C)C1CC(C)CCC1C(C)C (stereo unspecified)
survivor count (dose: 200.0 mg/kg/injection, schedule: Q04DX003 (ip), vehicle: Klucel (hydroxypropylcellulose) (HPC)): 5 of 6 | survivor count [1]: 0 of 6

CC=NCc1ccccc1
survivor count (dose: 200.0 mg/kg/injection, schedule: Q01DX009 (sc), vehicle: olive oil, sesame oil, peanut oil): 2 of 6 | survivor count (dose: 400.0 mg/kg/injection, schedule: Q04DX003 (sc), vehicle: olive oil, sesame oil, peanut oil): 4 of 6

NC(CSS(=O)(=O)O)=NCCCCOc1ccccc1
survivor count [2]: 3 of 3 | survivor count [3]: 0 of 3 | survivor count [4]: 1 of 3 | survivor count [5]: 1 of 3 | survivor count [6]: 0 of 3

COC1N(C2CC(O)C(CO)O2)C(=O)NC(=O)C1(F)Br (stereo unspecified)
T/C (dose: 40.0 mg/kg/injection, schedule: Q01DX009 (ip), vehicle: saline): 133 % of control

COc1cc(/C=N/NC(=O)C[n+]2ccccc2)cc(OC)c1
survivor count (dose: 200.0 mg/kg/injection, schedule: Q04DX003 (ip), vehicle: saline): 2 of 6 | survivor count [7]: 0 of 6

Reference: PubChem BioAssay AID248 (DTP/NCI, 2004)
